Results from one PubChem assay

By UniProt entry, the sequences of proteins in these tests, tags left out.
UniProt P04637, whole entry, target on record: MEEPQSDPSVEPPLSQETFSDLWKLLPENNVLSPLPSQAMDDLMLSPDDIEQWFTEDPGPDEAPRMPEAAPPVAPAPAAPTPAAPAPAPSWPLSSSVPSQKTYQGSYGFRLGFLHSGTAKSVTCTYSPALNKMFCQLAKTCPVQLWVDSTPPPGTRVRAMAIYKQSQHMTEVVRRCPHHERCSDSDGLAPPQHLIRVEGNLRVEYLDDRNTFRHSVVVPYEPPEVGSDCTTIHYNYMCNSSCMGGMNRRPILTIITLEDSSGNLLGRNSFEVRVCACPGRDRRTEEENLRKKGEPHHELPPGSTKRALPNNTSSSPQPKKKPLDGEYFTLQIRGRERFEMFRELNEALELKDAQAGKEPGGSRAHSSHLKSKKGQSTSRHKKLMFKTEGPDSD

Source: PubChem BioAssay AID2060322 (NCATS, 2025).

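NCI-H358 cells carrying N-terminally eGFP-tagged delta133p53alpha, with eGFP fluorescence read at 24 hours and fitted across a concentration series.
The dilution series runs from about 7.7e-06 to 290 µM in 23 concentration columns.
Potency, read at half-maximal effect from the fitted activation curve; lower values mean a more potent compound.
Calls follow the dose-curve shape: a well-fitted activation curve with a large enough effect is active, and small, poorly fitted or top-dose-only effects are inconclusive.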

Values are in µM.
Every entry below has the call inconclusive.
These entries are mostly ones the record files as inconclusive; other results of the assay are not listed here.
A potency from a partial, single-point or poor curve is only a rough figure.
Some entries filed as inconclusive have a full curve.
An entry listed twice with the same setting is a separate test.

Compound	fitted potency (µM)	curve as filed
OCCN1CCN(CC/C=C2/c3ccccc3Sc3ccc(C(F)(F)F)cc32)CC1	19.51	activator, single point
NC12CC3CC(CC(C3)C1)C2	34.35	activator, single point
Clc1cc(Cl)cc(CNc2ncncc2-c2ccc3c(c2)OCO3)c1	0.0109	activator, full curve, poor fit
S=C(Nc1ccccc1)Nc1nccs1	16.94	activator, partial curve
Cn1cc(C2=C(c3cn(C4CCN(Cc5ccccn5)CC4)c4ccccc34)C(=O)NC2=O)c2ccccc21	3.469	activator, full curve
C=CC(=O)N1CCC(Oc2cc3c(Nc4ccc(Cl)c(Cl)c4F)ncnc3cc2OC)CC1	23.93	activator, partial curve, poor fit
C=CC(=O)Nc1ccc2ncnc(Nc3ccc(OCc4cccc(F)c4)c(Cl)c3)c2c1	17.21	activator, partial curve, poor fit
Cc1cc(-c2nc3cc(F)ccc3s2)ccc1NC(=O)[C@@H](N)CCCCN	37.93	activator, single point
COC[C@H]1OC(=O)c2coc3c2[C@@]1(C)C1=C(C3=O)C2CCC(=O)[C@@]2(C)C[C@H]1OC(C)=O (stereo partly shown)	0.6108	activator, partial curve, poor fit
C=CC(=O)N1CCC[C@@H](n2nc(-c3ccc(Oc4ccccc4)cc3)c3c(N)ncnc32)C1	1.069	activator, full curve, poor fit
CN(C)CC(=O)N1CCC(c2ccc(NC(=O)c3ncc(C#N)[nH]3)c(C3=CCCCC3)c2)CC1	37.93	activator, single point
C[C@@H]1CCNC(=O)c2cc3ccc(C(=O)Nc4nc5ccccc5n4CCCN(C)C)cc3n21	2.686	activator, full curve
CN(C)Cc1c(C(=O)NCCOc2ccc(C(=O)NO)cc2)oc2ccccc12	24.32	activator, partial curve, poor fit
C=CC(=O)Nc1ccc2ncnc(Nc3ccc(OCc4cccc(F)c4)c(Cl)c3)c2c1	4.256	activator, full curve
C[C@H]1[C@H](/C=C/c2ccc(-c3ccccc3C#N)cn2)[C@@H]2[C@@H](C)OC(=O)[C@@H]2C[C@@H]1C	1.901	activator, full curve
O=C(NOCC1CC1)c1cc(Br)c(F)c(F)c1Nc1ccc(I)cc1Cl	21.33	activator, single point
O=c1cc(-c2ccccc2)[nH]c2nc(Cl)ccc12	1.51	activator, full curve
CCOC(=O)C1=C(C)NC2=C(C(=O)CC(C)(C)C2)C1c1ccc(-c2ccccc2)cc1 (stereo not shown)	19.01	activator, partial curve, poor fit
NS(=O)(=O)c1ccc(Nc2nc(OCC3CCCCC3)c3[nH]cnc3n2)cc1	37.93	activator, single point
C[C@@H]1COC(Nc2ccc3ncnc(Nc4ccc(OCc5nccs5)c(Cl)c4)c3c2)=N1	4.256	activator, partial curve
O=C(N[C@@H](COc1ccc2[nH]c(=O)[nH]c2c1)c1ccccc1)c1cccn(Cc2ccc(F)c(F)c2)c1=O	37.93	activator, single point
Cc1nnc(C[C@@H]2C=C(c3ccc(Cl)cc3)c3ccccc3-n3c(C)nnc32)o1	30.13	activator, single point
COc1cc2ncnc(Nc3cccc(Cl)c3)c2cc1OC	13.46	activator, partial curve, poor fit
O=S(=O)(c1cccc2ccccc12)n1ccc2ccc(N3CCN4CCCC4C3)cc21 (stereo not shown)	9.528	activator, partial curve, poor fit
CC[C@]1(O)C[C@H]2CN(CCC3C(=Nc4ccccc43)[C@@](C(=O)OC)(c3cc4c(cc3OC)N(C)[C@H]3[C@@](O)(C(N)=O)[C@H](O)[C@]5(CC)C=CCN6CC[C@]43[C@@H]65)C2)C1 (stereo partly shown)	0.0269	activator, full curve, poor fit
Oc1ccc2ccccc2c1SSc1c(O)ccc2ccccc12	1.694	activator, full curve, poor fit
COCCOc1ccc2c(c1)ncn2-c1ccc2cccc(N3CCC(N)CC3)c2n1	43.24	activator, single point
Cn1cc(-c2cnn3c(N)c(Br)c(C4CCCNC4)nc23)cn1 (stereo not shown)	37.93	activator, partial curve, poor fit
Cc1cc(CN2CCN(c3c(Br)cnc4nc(-c5ccc(N6CCN(C)CC6)cc5)[nH]c34)CC2)no1	24.32	activator, partial curve, poor fit
Cc1cccc(-c2[nH]ncc2-c2ccc(F)c(-c3cnn(CCO)c3)c2)n1	37.93	activator, single point

The first 2 entries again:

| Compound | fitted potency (µM) | curve as filed |
|---|---|---|
| `OCCN1CCN(CC/C=C2/c3ccccc3Sc3ccc(C(F)(F)F)cc32)CC1` | 19.51 | activator, single point |
| `NC12CC3CC(CC(C3)C1)C2` | 34.35 | activator, single point |